# PubChem BioAssay AID1259293 | Sanger Institute, 2017
# Aim: 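Which silenced kinases act in synergy with BYL719, cetuximab or trametinib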 (follow-up of hits)
# Cells: human NCI-H716 colorectal cancer cells
# Reagents: single siRNA against human genes
# Conditions: anchor drugs BYL719 at 1 µM, cetuximab at 5 µg/ml or trametinib at 10 nM, or DMSO vehicle alone
# Measurement: 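Replicate-averaged cell survival relative to non-targeting pool 2 control, plus a synergy score calculated separately for each of the three anchor drugs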
# Reading the numbers: synergy score with BYL719 and synergy score with cetuximab and synergy score with trametinib: higher = stronger synthetic lethal effect with drug
# Rule for the call: 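An siRNA is active if its synergy score is above 0.10 for one or more of the three anchor drugs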
# Calls: active = synergy with at least one drug; inactive = no synergy with any drug
# The whole screen tested 160 reagents; this is an unselected part. Of all reagents, 46 (29%) were called active. 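The method behind the synergy score is not described; each call refers to one siRNA in a single cell line.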 The numbers tell different reagents against one gene apart. Not all columns of the deposit are shown. Reagent sequences are not shown. The record does not give: the amount of reagent, the time to read-out.
The opening 3 entries as a preview:
gene symbol,siRNA no.,synergy score with BYL719,synergy score with cetuximab,synergy score with trametinib,Call
IKBKB,1,-0.179,-0.0952,-0.303,inactive
IKBKB,2,0.139,-0.106,-0.00929,active
IKBKB,3,-0.0669,-0.344,-0.0298,inactive

The listing, from the first entry:
gene symbol,siRNA no.,synergy score with BYL719,synergy score with cetuximab,synergy score with trametinib,Call
IKBKB,1,-0.179,-0.0952,-0.303,inactive
IKBKB,2,0.139,-0.106,-0.00929,active
IKBKB,3,-0.0669,-0.344,-0.0298,inactive
IKBKB,4,0.0662,-0.0831,0.102,active
PRAG1,1,0.00814,-0.109,-0.227,inactive
PRAG1,2,0.704,-0.109,-0.0962,active
PRAG1,3,0.0162,-0.191,0.101,active
PRAG1,4,0.132,-0.0544,0.133,active
MAP3K8,1,-0.179,-0.109,-0.469,inactive
MAP3K8,2,0.199,0.23,0.127,active
MAP3K8,3,-0.258,0.257,0.0874,active
MAP3K8,4,-0.101,-0.109,-0.118,inactive
MAPKAPK2,1,0.182,-0.109,-0.303,active
MAPKAPK2,2,-0.179,-0.109,-0.469,inactive
MAPKAPK2,3,-0.0162,-0.0847,0.242,active
MAPKAPK2,4,-0.179,-0.109,0.0668,inactive
MARK3,1,-0.179,-0.109,0.0124,inactive
MARK3,2,-0.0468,-0.0834,0.225,active
MARK3,3,-0.193,-0.263,-0.0255,inactive
MARK3,4,-0.612,-0.461,-0.077,inactive
EPHA6,1,0.00227,-0.0451,0.133,active
EPHA6,2,0.128,0.0244,0.132,active
EPHA6,3,-0.0845,0.0206,-0.0943,inactive
EPHA6,4,0.0843,-0.109,0.11,active
CDKN2D,1,-0.169,-0.328,-0.0365,inactive
CDKN2D,2,0.06,-0.0275,0.157,active
CDKN2D,3,0.0516,0.0462,0.239,active
CDKN2D,4,0.0466,-0.0271,0.0219,inactive
PIM1,1,0.0437,0.0515,0.16,active
PIM1,2,-0.173,-0.139,0.156,active
PIM1,3,-0.212,-0.267,-0.0835,inactive
PIM1,4,-0.0382,-0.0716,-0.203,inactive
CAMK2N1,1,0.204,-0.0625,0.165,active
CAMK2N1,2,0.142,-0.374,-0.187,active
CAMK2N1,3,-0.0694,-0.121,-0.0098,inactive
CAMK2N1,4,-0.375,-0.219,-0.0428,inactive
